Laboratory results published in article PMC12043086.
Results are given in words; binding and its absence hold for the method and conditions named. In cells and extracts the contact can be indirect. A yes stands for co-enrichment or nearness to the bait. Other partners may have been found.

B1: biglycan (protein, UniProt P28653 38-369)
chain: DEEASGSDTTSGVPDLDSVTPTFSAMCPFGCHCHLRVVQCSDLGLKTVPKEISPDTTLLDLQNNDISELRKDDFKGLQHLYALVLVNNKISKIHEKAFSPLRKLQKLYISKNHLVEIPPNLPSSLVELRIHDNRIRKVPKGVFSGLRNMNCIEMGGNPLENSGFEPGAFDGLKLNYLRISEAKLTGIPKDLPETLNELHLDHNKIQAIELEDLLRYSKLYRLGLGHNQIRMIENGSLSFLPTLRELHLDNNKLSRVPAGLPDLKLLQVVYLHSNNITKVGINDFCPMGFGVKRAYYNGISLFNNPVPYWEVQPATFRCVTDRLAIQFGNYKK
B2: Mfap2 (Magp-1) (protein, UniProt P55002 17-183)
chain: QGQYDLDPLPPFPDHVQYNHYGDQIDNADYYDYQEVSPRTPEEQFQSQQQVQQEVIPAPTPEPAAAGDLETEPTEPGPLDCREEQYPCTRLYSIHKPCKQCLNEVCFYSLRRVYVVNKEICVRTVCAHEELLRADLCRDKFSKCGVMAVSGLCQSVAASCARSCGGC
B3: Mfap5 (protein, UniProt Q9QZJ6 29-164)
chain: QRGDDVPETFTDDPNLVNDPSTDDTALADITPSTDDLAGDKNATAECRDEKFACTRLYSVHRPVRQCVHQSCFTSLRRMYIINNEICSRLVCKEHEAMKDELCRQMAGLPPRRLRRSNYFRLPPCENMNLQRPDGL
B4: Tgfbi (protein, UniProt P82198 24-683)
chain: GPAKSPYQLVLQHSRLRGRQHGPNVCAVQKVIGTNKKYFTNCKQWYQRKICGKSTVISYECCPGYEKVPGEKGCPAALPLSNLYETMGVVGSTTTQLYTDRTEKLRPEMEGPGSFTIFAPSNEAWSSLPAEVLDSLVSNVNIELLNALRYHMVDRRVLTDELKHGMTLTSMYQNSNIQIHHYPNGIVTVNCARLLKADHHATNGVVHLIDKVISTITNNIQQIIEIEDTFETLRAAVAASGLNTVLEGDGQFTLLAPTNEAFEKIPAETLNRILGDPEALRDLLNNHILKSAMCAEAIVAGMSMETLGGTTLEVGCSGDKLTINGKAVISNKDILATNGVIHFIDELLIPDSAKTLLELAGESDVSTAIDILKQAGLDTHLSGKEQLTFLAPLNSVFKDGVPRIDAQMKTLLLNHMVKEQLASKYLYSGQTLDTLGGKKLRVFVYRNSLCIENSCIAAHDKRGRFGTLFTMDRMLTPPMGTVMDVLKGDNRFSMLVAAIQSAGLMEILNREGVYTVFAPTNEAFQAMPPEELNKLLANAKELTNILKYHIGDEILVSGGIGALVRLKSLQGDKLEVSSKNNVVSVNKEPVAETDIMATNGVVYAINTVLQPPANRPQERGDELADSALEIFKQASAYSRAAQRSVRLAPVYQRLLERMKH
B5: fibromodulin (protein, UniProt P50608 19-376)
chain: QYDEDSHWWIQYLRNQQSTYYDPYDPYPYEPSEPYPYGVEEGPAYAYGAPPPPEPRDCPQECDCPPNFPTAMYCDNRNLKYLPFVPSRMKYVYFQNNQISAIQEGVFDNATGLLWVALHGNQITSDKVGRKVFSKLRHLERLYLDHNNLTRMPGPLPRSLRELHLDHNQISRVPNNALEGLENLTALYLHHNEIQEVGSSMRGLRSLILLDLSYNHLRRVPDGLPSALEQLYLEHNNVYTVPDSYFRGSPKLLYVRLSHNSLTNNGLATNTFNSSSLLELDLSYNQLQKIPPVNTNLENLYLQGNRINEFSISSFCTVVDVMNFSKLQVLRLDGNEIKRSAMPVDAPLCLRLANLIEI

How the values were obtained:
[1] = target: active TGF-β dimer (mouse (endogenous in mouse skeletal muscle)); test: affinity purification with mass spectrometry; co-IP with anti-TGF-β antibody (1D11) from WT and Col6a2–/– mouse muscle lysates; quantitative DIA mass spectrometry; n = 4 per genotype
[2] = target: collagen VI (collagen type VI) (mouse (endogenous in mouse skeletal muscle)); test: affinity purification with mass spectrometry; co-IP with anti-collagen VI antibody (Ab6588, raised against COL6A1) from WT mouse muscle lysates, Col6a2–/– muscle as negative control; quantitative DIA mass spectrometry; n = 5 per genotype

Row | Binder | binding [1] | binding [2]
1 | B1 | binds | –
2 | B2 | – | binds
3 | B3 | – | binds
4 | B4 | – | binds
5 | B5 | – | binds
